From PMC10132971
Results are given in words; binding and its absence hold for the method and conditions named. Some entries that bind do so weakly or less than the wild type.

T1: Smc6-TAP (S. cerevisiae) (UniProt Q12749)
T1 sequence: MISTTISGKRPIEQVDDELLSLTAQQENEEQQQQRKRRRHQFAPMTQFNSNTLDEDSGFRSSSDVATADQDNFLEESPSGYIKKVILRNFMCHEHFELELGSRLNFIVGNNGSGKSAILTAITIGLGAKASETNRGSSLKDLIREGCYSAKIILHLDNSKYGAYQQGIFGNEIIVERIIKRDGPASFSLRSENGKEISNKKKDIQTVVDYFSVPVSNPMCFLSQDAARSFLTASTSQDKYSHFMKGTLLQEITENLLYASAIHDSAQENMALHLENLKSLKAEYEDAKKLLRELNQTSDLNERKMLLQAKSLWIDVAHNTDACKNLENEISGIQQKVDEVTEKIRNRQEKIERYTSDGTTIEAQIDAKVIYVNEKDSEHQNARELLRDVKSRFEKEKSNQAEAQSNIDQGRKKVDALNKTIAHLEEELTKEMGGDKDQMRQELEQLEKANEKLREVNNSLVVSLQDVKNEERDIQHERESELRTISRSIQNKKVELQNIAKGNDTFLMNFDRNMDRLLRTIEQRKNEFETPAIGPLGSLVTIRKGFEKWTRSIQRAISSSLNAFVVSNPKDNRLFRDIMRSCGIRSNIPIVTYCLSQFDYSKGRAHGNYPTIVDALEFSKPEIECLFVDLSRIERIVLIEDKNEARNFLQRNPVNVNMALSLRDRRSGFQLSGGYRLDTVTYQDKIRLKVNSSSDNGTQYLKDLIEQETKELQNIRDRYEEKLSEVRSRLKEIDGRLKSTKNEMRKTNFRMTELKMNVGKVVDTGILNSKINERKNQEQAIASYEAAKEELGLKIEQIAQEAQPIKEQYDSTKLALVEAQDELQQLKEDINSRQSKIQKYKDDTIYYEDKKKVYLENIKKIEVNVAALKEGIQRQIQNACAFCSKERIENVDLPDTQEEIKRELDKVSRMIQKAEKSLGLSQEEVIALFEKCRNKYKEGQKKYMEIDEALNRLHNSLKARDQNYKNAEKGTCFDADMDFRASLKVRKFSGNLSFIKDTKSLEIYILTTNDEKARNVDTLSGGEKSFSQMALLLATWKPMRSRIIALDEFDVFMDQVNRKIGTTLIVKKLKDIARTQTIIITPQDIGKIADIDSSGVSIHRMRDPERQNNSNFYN


Target: T1, Smc6-TAP (S. cerevisiae)
Test: tandem affinity purification + SEC; subunits co-overexpressed in S. cerevisiae; complex purified through Smc6-TAP (IgG Sepharose, TEV protease, calmodulin Sepharose, 500 mM NaCl buffers), then Superose 6 Increase 10/300 GL in STO500 buffer and SDS-PAGE of the fractions (octamer and hexamer)

Binder | binding
Smc5 (protein, UniProt Q08204 1-1093) MTSLIDLGRYVERTHHGEDTEPRSKRVKIAKPDLSSFQPGSIIKIRLQDFVTYTLTEFNLSPSLNMIIGPNGSGKSTFVCAVCLGLAGKPEYIGRSKKVEDFIKNGQDVSKIEITLKNSPNVTDIEYIDARDETIKITRIITRSKRRSDYLINDYQVSESVVKTLVAQLNIQLDNLCQFLSQERVEEFARLKSVKLLVETIRSIDASLLDVLDELRELQGNEQSLQKDLDFKKAKIVHLRQESDKLRKSVESLRDFQNKKGEIELHSQLLPYVKVKDHKEKLNIYKEEYERAKANLRAILKDKKPFANTKKTLENQVEELTEKCSLKTDEFLKAKEKINEIFEKLNTIRDEVIKKKNQNEYYRGRTKKLQATIISTKEDFLRSQEILAQTHLPEKSVFEDIDIKRKEIINKEGEIRDLISEIDAKANAINHEMRSIQRQAESKTKSLTTTDKIGILNQDQDLKEVRDAVLMVREHPEMKDKILEPPIMTVSAINAQFAAYLAQCVDYNTSKALTVVDSDSYKLFANPILDKFKVNLRELSSADTTPPVPAETVRDLGFEGYLSDFITGDKRVMKMLCQTSKIHTIPVSRRELTPAQIKKLITPRPNGKILFKRIIHGNRLVDIKQSAYGSKQVFPTDVSIKQTNFYQGSIMSNEQKIRIENEIINLKNEYNDRKSTLDALSNQKSGYRHELSELASKNDDINREAHQLNEIRKKYTMRKSTIETLREKLDQLKREARKDVSQKIKDIDDQIQQLLLKQRHLLSKMASSMKSLKNCQKELISTQILQFEAQNMDVSMNDVIGFFNEREADLKSQYEDKKKFVKEMRDTPEFQSWMREIRSYDQDTKEKLNKVAEKYEEEGNFNLSFVQDVLDKLESEIAMVNHDESAVTILDQVTAELRELEHTVPQQSKDLETIKAKLKEDHAVLEPKLDDIVSKISARFARLFNNVGSAGAVRLEKPKDYAEWKIEIMVKFRDNAPLKKLDSHTQSGGERAVSTVLYMIALQEFTSAPFRVVDEINQGMDSRNERIVHKAMVENACAENTSQYFLITPKLLTGLHYHEKMRIHCVMAGSWIPNPSEDPKMIHFGETSNYSFD | binds
Nse1 (protein, UniProt Q07913 1-336) MEVHEEQVSAPVTGDATAKYLLQYILSARGICHENALILALMRLETDASTLNTEWSIQQWVDKLNDYINAINVKLNLLGYKIIRINHGIGRNAVTLKAKQNFESFEDNTAIRAHNNDYAVLQSIVLPESNRFFVYVNLASTEETKLATRFNQNEIEFMKWAIEQFMISGETIVEGPALETSIIVKEVNRILVAATGDSNLAKWRKFSTFTVGSTNLFQFQELTATDIEDLLLRLCELKWFYRTQEGKFGIDLRCIAELEEYLTSMYNLNTCQNCHKLAIQGVRCGNESCREENEETGENSLSQIWHVDCFKHYITHVSKNCDRCGSSLITEGVYVI | binds
Nse2 (protein, UniProt P38632 1-267) MALNDNPIPKSVPLHPKSGKYFHNLHARDLSNIYQQCYKQIDETINQLVDSTSPSTIGIEEQVADITSTYKLLSTYESESNSFDEHIKDLKKNFKQSSDACPQIDLSTWDKYRTGELTAPKLSELYLNMPTPEPATMVNNTDTLKILKVLPYIWNDPTCVIPDLQNPADEDDLQIEGGKIELTCPITCKPYEAPLISRKCNHVFDRDGIQNYLQGYTTRDCPQAACSQVVSMRDFVRDPIMELRCKIAKMKESQEQDKRSSQAIDVL | binds
Nse3 (protein, UniProt Q05541 1-303) MSSIDNDSDVDLTEDLAVAKIVKENPVARKMVRYILSRGESQNSIITRNKLQSVIHEAAREENIAKPSFSKMFMDINAILYNVYGFELQGLPSKNNMNAGGNGSNSNTNKSMPEPLGHRAQKFILLNNVPHSKNFDDFKILQSAHTYEELIVTGEYIGDDIASGTSNTLESKLSTDRDLVYKGVLSVILCIVFFSKNNILHQELIKFLETFGIPSDGSKIAILNITIEDLIKSLEKREYIVRLEEKSDTDGEVISYRIGRRTQAELGLESLEKLVQEIMGLEKEQTKSLHDDIIKSIGDSYSI | binds
Nse4 (protein, UniProt P43124 1-402) MSSTVISRKRRNSTVTEPDSSGETRKQKKSRSDEKSSSSKDGDPQLEFKVLQGYRDLESEMHKGRAQVTRTGDIGVAMDNLNAVDSLFNKVIGIKNNGLFAHDARAMVSISELAQISVRNLKFDDSRSMVNLENIVNSLKRYMLKEHFKLNNIAENRNDLTLAADEQSAADQQEESDGDIDRTPDDNHTDKATSSFKATSMRHSYLQQFSHYNEFSQFNWFRIGALYNTISKNAPITDHLMGPLSIEKKPRVLTQRRRNNDQVGEKITAEKITQHSLNSTQQETTPEQVKKCFKKLSKKLGPEGSINLFKFIIDPNSFSRSIENLFYTSFLIKEGKLLMEHDEEGLPTIKIKQSISHTDSRSKEIERQRRRAAHQNHIIFQMDMPTWRKLIKKYNITSPFLD | binds
Nse5 (protein, UniProt Q03718 1-556) MDGALINSVLYVSPRNGAHYFVELTEKHLLAFEMLNSMCLLENYDHVLLFLECQFGKSHNLAVIPFDIILVLFTLSTLSEYYKEPILRANDPYNTSRETLSRRALKLLQKYLAILKEFDSEQYNLYDLELLRCQFFLAIDTLTPKKQKWGFDRFRRTKSESGVTYRQNASVDPELDQAKTFKNPYRSYISCLEQRNTILGNRLLNLKLNEPGEFINMILWTLSNSLQESTPLFLSSHEIWMPLLEILIDLFSCRQDYFIQHEVAQNVSKSLFVQRLSESPLAVFFESLNTRNFANRFSEYVFLNCDYKLPSDNYATPVHPVYNGENTIVDTYIPTIKCSPLYKSQKSLALRRKLIGSCFKLLLRVPDGHRLITPRIVADDVIQGISRTLASFNDILQFKKFFMTENLSQESYFIPLLAEGTLSEILKDTQECVVILTLVENLSDGVSFCNEVIGLVKSKCFAFTEQCSQASYEEAVLNIEKCDVCLLVLLRYLLHLIGTEAILDAKEQLEMLHAIEKNDSGRRQWAKALNLGNDPPLLYPIVSQMFGVHDKSVIIE | binds
